Experimental data published in patent US7767693B2, “Hsp90 family protein inhibitors” (Kyowa Hakko Kirin Co., Ltd., priority 2003, dated 2010).
Some entries share one result that the patent states for a list of compounds.

Biological target: T1, Human N-terminal recombinant Hsp90 protein (region of amino acids 9 to 236) (Homo sapiens, UniProt P07900)
T1 construct: region of amino acids 9 to 236; made in house
Test: Hsp90 Protein Binding Assay
Settings: at concentrations below 10 μmol/L; competition with biotinylated Radicicol 0.1 μmol/L, immobilized Hsp90, time-resolved fluorescence

| SMILES | inhibited the binding of biotinylated Radicicol to the Hsp90 protein |
| --- | --- |
| CCc1c(O)cc(O)c(C(=O)c2ccc(OC(F)F)cc2)c1CC(=O)N(CCO)CCO [Compound 90, 2-{2-[4-(difluoromethoxy)benzoyl]-6-ethyl-3,5-dihydroxyphenyl}-N,N-bis(2-hydroxyethyl)acetamide] | more than 30% |
| CCc1c(O)cc(O)c(C(=O)c2ccc(OC(F)F)cc2)c1CC(=O)N(CCO)CCOC [Compound 91, 2-{2-[4-(difluoromethoxy)benzoyl]-6-ethyl-3,5-dihydroxyphenyl}-N-(2-hydroxyethyl)-N-(2-methoxy-ethyl)acetamide] | more than 30% |
| CCc1c(O)cc(O)c(C(=O)c2ccc(C)c(O)c2)c1CC(=O)N(CCO)CCO [Compound 92, 2-[2-ethyl-3,5-dihydroxy-6-(3-hydroxy-4-methylbenzoyl)phenyl]-N,N-bis(2-hydroxyethyl)acetamide] | more than 30% |
| CCc1c(O)cc(O)c(C(=O)c2ccc(C)c(O)c2)c1CC(=O)N(CCO)CCOC [Compound 93, 2-[2-ethyl-3,5-dihydroxy-6-(3-hydroxy-4-methylbenzoyl)phenyl]-N-(2-hydroxyethyl)-N-(2-methoxy-ethyl)acetamide] | more than 30% |
| CCc1c(O)cc(O)c(C(=O)c2ccc(OC(F)(F)F)cc2)c1CC(=O)N(CCO)CCCO [Compound 94, 2-{2-ethyl-3,5-dihydroxy-6-[4-(trifluoro-methoxy)benzoyl]phenyl}-N-(2-hydroxyethyl)-N-(3-hydroxy-propyl)acetamide] | more than 30% |
| CCc1c(O)cc(O)c(C(=O)c2ccc(SC)cc2)c1CC(=O)N(CCO)CCOC [Compound 95, 2-[2-ethyl-3,5-dihydroxy-6-(4-methylsulfanylbenzoyl)phenyl]-N-(2-hydroxyethyl)-N-(2-methoxy-ethyl)acetamide] | more than 30% |
| CCc1c(O)cc(O)c(C(=O)c2ccc(S(C)(=O)=O)cc2)c1CC(=O)N(CCO)CCO [Compound 96, 2-[2-ethyl-3,5-dihydroxy-6-(4-methanesulfonyl-benzoyl)phenyl]-N,N-bis(2-hydroxyethyl)acetamide] | more than 30% |
| CCc1c(O)cc(O)c(C(=O)c2ccc(S(C)(=O)=O)cc2)c1CC(=O)N(CCO)CCOC [Compound 97, 2-[2-ethyl-3,5-dihydroxy-6-(4-methanesulfonyl-benzoyl)phenyl]-N-(2-hydroxyethyl)-N-(2-methoxyethyl)acetamide] | more than 30% |
| CCc1c(O)cc(O)c(C(=O)c2ccc(OC)c(OC)c2)c1CC(=O)N(CCO)CCCO [Compound 99, 2-[2-(3,4-dimethoxybenzoyl)-6-ethyl-3,5-dihydroxyphenyl]-N-(2-hydroxyethyl)-N-(3-hydroxypropyl)-acetamide] | more than 30% |
| CCc1c(O)cc(O)c(C(=O)c2ccc(OC)c(OC)c2)c1CC(=O)N(CCO)Cc1ccco1 [Compound 100, 2-[2-(3,4-dimethoxybenzoyl)-6-ethyl-3,5-dihydroxyphenyl]-N-(furan-2-ylmethyl)-N-(2-hydroxy-ethyl)acetamide] | more than 30% |
| CCc1c(O)cc(O)c(C(=O)c2ccc(OC)cc2)c1CC(=O)N(CCO)CCCO [Compound 101, 2-[2-ethyl-3,5-dihydroxy-6-(4-methoxy-benzoyl)phenyl]-N-(2-hydroxyethyl)-N-(3-hydroxypropyl)-acetamide] | more than 30% |
| CCc1c(O)cc(O)c(C(=O)c2ccc(OC)c(OCCO)c2)c1CC(=O)N(CCO)CCOC [Compound 102, 2-{2-ethyl-3,5-dihydroxy-6-[3-(2-hydroxy-ethoxy)-4-methoxybenzoyl]phenyl}-N-(2-hydroxyethyl)-N-(2-methoxyethyl)acetamide] | more than 30% |
| CCc1c(O)cc(O)c(C(=O)c2ccc(OC)c(OCCOC)c2)c1CC(=O)N(CCO)CCOC [Compound 103, 2-{2-ethyl-3,5-dihydroxy-6-[4-methoxy-3-(2-methoxyethoxy)benzoyl]phenyl}-N-(2-hydroxyethyl)-N-(2-methoxyethyl)acetamide] | more than 30% |
| CCc1c(O)cc(O)c(C(=O)c2ccc(OC)c(OCCN3CCOCC3)c2)c1CC(=O)N(CCO)CCOC [Compound 104, 2-{2-ethyl-3,5-dihydroxy-6-[4-methoxy-3-(2-morpholinoethoxy)benzoyl]phenyl}-N-(2-hydroxyethyl)-N-(2-methoxyethyl)acetamide] | more than 30% |
| CCc1c(O)cc(O)c(C(=O)c2ccc(O)c(OC)c2)c1CC(=O)N(CCO)CCOC [Compound 105, 2-[2-ethyl-3,5-dihydroxy-6-(4-hydroxy-3-methoxybenzoyl)phenyl]-N-(2-hydroxyethyl)-N-(2-methoxy-ethyl)acetamide] | more than 30% |
| CCc1c(O)cc(O)c(C(=O)c2ccc(O)c(OC)c2)c1CC(=O)N(CCOC)CCOC [Compound 106, 2-[2-ethyl-3,5-dihydroxy-6-(4-hydroxy-3-methoxybenzoyl)phenyl]-N,N-bis(2-methoxyethyl)acetamide] | more than 30% |
| CCc1c(O)cc(O)c(C(=O)c2ccc(S(C)(=O)=O)cc2)c1CC(=O)N(CCOC)CCOC [Compound 107, 2-[2-ethyl-3,5-dihydroxy-6-(4-methanesulfonyl-benzoyl)phenyl]-N,N-bis(2-methoxyethyl)acetamide] | more than 30% |
| CCc1c(O)cc(O)c(C(=O)c2ccc(OCCO)c(OC)c2)c1CC(=O)N(CCO)CCOC [Compound 108, 2-{2-ethyl-3,5-dihydroxy-6-[4-(2-hydroxy-ethoxy)-3-methoxybenzoyl]phenyl}-N-(2-hydroxyethyl)-N-(2-methoxyethyl)acetamide] | more than 30% |
| CCc1c(O)cc(O)c(C(=O)c2ccc(OCCOC)c(OC)c2)c1CC(=O)N(CCO)CCOC [Compound 109, 2-{2-ethyl-3,5-dihydroxy-6-[3-methoxy-4-(2-methoxyethoxy)benzoyl]phenyl}-N-(2-hydroxyethyl)-N-(2-methoxyethyl)acetamide] | more than 30% |
| CCc1c(O)cc(O)c(C(=O)c2ccc(OCCN3CCOCC3)c(OC)c2)c1CC(=O)N(CCO)CCOC [Compound 110, 2-{2-ethyl-3,5-dihydroxy-6-[3-methoxy-4-(2-morpholinoethoxy)benzoyl]phenyl}-N-(2-hydroxyethyl)-N-(2-methoxyethyl)acetamide] | more than 30% |
| CCc1c(O)cc(O)c(C(=O)c2ccc(OC)cc2)c1CC(=O)N(CCO)CCN1CCOCC1 [Compound 111, 2-[2-ethyl-3,5-dihydroxy-6-(4-methoxy-benzoyl)phenyl]-N-(2-hydroxyethyl)-N-(2-morpholinoethyl)-acetamide] | more than 30% |
| CCc1c(O)cc(O)c(C(=O)c2ccc(OC)c(OC)c2)c1CC(=O)N(CCOC)CCN(C)C [Compound 112, 2-[2-(3,4-dimethoxybenzoyl)-6-ethyl-3,5-dihydroxyphenyl]-N-(2-dimethylaminoethyl)-N-(2-methoxy-ethyl)acetamide] | more than 30% |
| CCc1c(O)cc(O)c(C(=O)c2ccc(OC)cc2)c1CC(=O)N(CCOC)CCN(C)C [Compound 113, N-(2-dimethylaminoethyl)-2-[2-ethyl-3,5-dihydroxy-6-(4-methoxybenzoyl)phenyl]-N-(2-methoxyethyl)-acetamide] | more than 30% |
| CCc1c(O)cc(O)c(C(=O)c2ccc(OC)c(OC)c2)c1CC(=O)N(CCO)CCN(CC)CC [Compound 114, N-(2-diethylaminoethyl)-2-[2-(3,4-dimethoxy-benzoyl)-6-ethyl-3,5-dihydroxyphenyl]-N-(2-hydroxyethyl)-acetamide] | more than 30% |
| CCc1c(O)cc(O)c(C(=O)c2ccc(OC)c(OC)c2)c1CC(=O)N(CCOC)CCN1CCOCC1 [Compound 115, 2-[2-(3,4-dimethoxybenzoyl)-6-ethyl-3,5-dihydroxyphenyl]-N-(2-methoxyethyl)-N-(2-morpholinoethyl)-acetamide] | more than 30% |
| CCc1c(O)cc(O)c(C(=O)c2ccc(OC)cc2)c1CC(=O)N(CCOC)CCN1CCOCC1 [Compound 116, 2-[2-ethyl-3,5-dihydroxy-6-(4-methoxy-benzoyl)phenyl]-N-(2-methoxyethyl)-N-(2-morpholinoethyl)-acetamide] | more than 30% |
| CCc1c(O)cc(O)c(C(=O)c2ccc(OC)cc2)c1CC(=O)N(CCCO)CCOC [Compound 117, 2-[2-ethyl-3,5-dihydroxy-6-(4-methoxy-benzoyl)phenyl]-N-(3-hydroxypropyl)—N-(2-methoxyethyl)-acetamide] | more than 30% |
| CCc1c(O)cc(O)c(C(=O)c2ccc(OC)cc2)c1CC(=O)N(CCO)CCCOC [Compound 118, 2-[2-ethyl-3,5-dihydroxy-6-(4-methoxy-benzoyl)phenyl]-N-(2-hydroxyethyl)-N-(3-methoxypropyl)-acetamide] | more than 30% |
| CCc1c(O)cc(O)c(C(=O)c2ccc(OC)c(OC)c2)c1CC(=O)N(CCCO)CCOC [Compound 119, 2-[2-(3,4-dimethoxybenzoyl)-6-ethyl-3,5-dihydroxyphenyl]-N-(3-hydroxypropyl)—N-(2-methoxyethyl)-acetamide] | more than 30% |
| CCc1c(O)cc(O)c(C(=O)c2ccc(OC)c(OC)c2)c1CC(=O)N(CCO)CCCOC [Compound 120, 2-[2-(3,4-dimethoxybenzoyl)-6-ethyl-3,5-dihydroxyphenyl]-N-(2-hydroxyethyl)-N-(3-methoxypropyl)-acetamide] | more than 30% |
